Results on 92 substances are retold here after the supplement of paper PMC5949888.

Most values lie at the floor of the assay. Slopes are relative: functional sequences can read slightly below zero.

This data set relates to Saccharomyces cerevisiae PS128 hsf1 delta, HSF1(1-493) fusion. Nature of the data set: growth estimate (transactivation domain function in HSF1 fusion, heat-shock survival) (a.u. (slope of normalised read count over time)); higher = stronger growth at 37°C, i.e. more transactivation activity. To be noted: library: random library.
For the substance LDRSRRCLLAPFLAIGGKLC, the growth estimate is below -0.25.
In the case of NFTLGSSPSNSPYSWGNQ, the growth estimate was below -0.25.
As for GRVCVVSTARLNSVLIRANV, the growth estimate was below -0.25.
With PHSRL, the growth estimate was below -0.25.
As for HGLRPVVDSGGLALWGCGKS, the growth estimate was -0.198.
Turning to SGRRQRGLSVPSTGRHPRRR, the growth estimate was below -0.25.
For WEVLRP, the growth estimate was below -0.25.
GWTLKWPLVARVRGRKYSSK: the growth estimate is below -0.25.
Regarding CTSSRKTYAIHYSHSFPDCV, the growth estimate is below -0.25.
For the substance REGIMIVPGTARPLQSRDHR, the growth estimate is below -0.25.
Take WTQ: the growth estimate was below -0.25.
RYKTTRVIIAGHVNIAFRE: the growth estimate is below -0.25.
Turning to GQATWLFRSNGSRGSSVSAP, the growth estimate was below -0.25.
Turning to STNDRCTGATLPR, the growth estimate was below -0.25.
In the case of GAAGLHTQMR, the growth estimate is below -0.25.
The figure for SQPCGGNRVLAVTTN is below -0.25; for YSILHTGE it is below -0.25.
With KAEFIAGILRLHISESRAAG, the growth estimate was below -0.253.
Take PVGELGEWAPGRSARV: the growth estimate was below -0.25.
For LGSFSVYSQP, the growth estimate is -0.243.
As for LHTVIPGVLQSLSGSRAEEV, the growth estimate is below -0.25.
The figure for SVDFKKGACSSMGVQVYLFS is below -0.25; for IDTREMYVFERTSTRTTHSR it is -0.243; for HDIFEHSSAATGTLTTDQ it is below -0.25.
For the substance SLVIVSYVTTKPDLDRTARA, the growth estimate is below -0.25.
For DTPLEAATLCDSKAKG, the growth estimate is below -0.25.
The figure for RGSLAGKSQMSKDG is below -0.25.
For VKSSRQGSCFFQVVHYSRQG, the growth estimate is below -0.25.
For CAD, the growth estimate is below -0.25.
With RWMSGDRFFWNAPGCIIRGR, the growth estimate is below -0.25.
The figure for CKRLCGQVSSNTAGWFGE is below -0.25; for HYCYSRCGGVTIEGGI it is below -0.25; for PPVQGKCWNTTLSRTEHQAR it is below -0.25.
Take TNGTGVIFELVSPTTGWSKC: the growth estimate is below -0.25.
As for GRRLKFPHGRQSGRQCFPRG, the growth estimate is below -0.25.
In the case of LCTAKCPTTAINSDFPGFNS, the growth estimate was below -0.25.
Take RFVTLTRNAVSTPCNPFGGY: the growth estimate was below -0.25.
Regarding VWASDTLKRTPYEEGLRPTL, the growth estimate was below -0.25.
Take PIDKQVIERSLNGCHRCEVR: the growth estimate is below -0.25.
DPWCDKEWAGRGSGYS: the growth estimate was below -0.25.
As to CKGSGPRVTCRYTQTLYYRP, the growth estimate is below -0.25.
Regarding IASLWIESGVLWVNNYSARW, the growth estimate is below -0.25.
Consider SRLNNGFGSLSLPYWCSACP, for which the growth estimate is below -0.25.
With SRLDRKAPP, the growth estimate is below -0.25.
Take ELGRTVYYVLGHDKSAVGEP: the growth estimate is below -0.25.
The result for NRTVALGMRI reads below -0.25; that for GYIRVPVIPRGYAIA, below -0.25; that for LKKPLSSSQHCLKGAKRATE, below -0.25.
In the case of WGTLARKSEDVILCVPFVTH, the growth estimate is below -0.25.
With YASFTIGGAFKKLL, the growth estimate is below -0.25.
In the case of WDDTSD, the growth estimate was below -0.25.
SGFPCLTYHNCLAQQSPSRS: the growth estimate was below -0.25.
The result for IKLKLNKHQGHIC reads below -0.25.
The figure for GISFS is below -0.25.
Regarding KAV, the growth estimate was below -0.25.
The result for PRLITALSMRVGGRPFYVAC reads below -0.25; that for RRCSP, below -0.25.
In the case of GCMSTVSNIQW, the growth estimate is below -0.25.
Regarding QRVLVVSDTDDWLEFTLRRM, the growth estimate was below -0.25.
SIRFIETGSECQPHGTRSAP: the growth estimate was below -0.25.
The result for TGGAEIGPAMNVCVCVPVGS reads below -0.25.
For the substance LCHRRLGNLGQPCK, the growth estimate is below -0.25.
For the substance MGGLGGSTSIPPVIHGRA, the growth estimate was below -0.25.
The figure for YTDASVSIPLEHRAGGRGAI is below -0.25; for FFYLWRPNCSFGVDTELVWS it is below -0.25; for AYWGIAFPPASTFF it is below -0.25.
On to LAISNVEWNHETVHQGCYDL, for which the growth estimate was below -0.25.
With LAWIVPGFIRSAFFLGLLLP, the growth estimate is below -0.25.
With HRGANNWLMHAYNSKRAWYG, the growth estimate was below -0.25.
For the substance CKGSLEKVYKFDRLKSALSD, the growth estimate is below -0.25.
On to YCGEGASESNRPRDIRIILP, for which the growth estimate is below -0.25.
Regarding GTEVTTRSKHAIAQALDLMR, the growth estimate was below -0.25.
Consider NPGIRWQLASGRWRR, for which the growth estimate is below -0.25.
For IQVGHETLYFSR, the growth estimate is below -0.25.
For the substance LSMAVCRIYRMKTRSQISQT, the growth estimate was below -0.25.
The figure for PLR is below -0.25; for PWNITNGVSLCHSELNGQGP it is below -0.25; for RLLKGSVITPSAQECH it is below -0.25.
Turning to LESSGTGGGGIGVGVITSVV, the growth estimate was below -0.25.
On to MVRGFKTFSLGQTCALQLVP, for which the growth estimate was below -0.25.
Regarding AHSREGVPES, the growth estimate was below -0.25.
Take GRGGV: the growth estimate is below -0.25.
HRDRHRSHLSHRMPQCYHIR: the growth estimate was below -0.25.
The figure for ITSLSLTCVSLHGRAQIREG is below -0.25; for LFRGGIVARRMPLRDAAIHI it is below -0.25.
Regarding GGQAGGPSWISRHECSKPCR, the growth estimate is below -0.25.
Consider ELGLLSGSEHPSRVEFMG, for which the growth estimate is below -0.25.
Regarding CILSHCNQVPVESLRLKRFK, the growth estimate is below -0.25.
As for PEEES, the growth estimate was below -0.25.
GGLGSGLIGSGAFGG: the growth estimate was below -0.25.
As for SGRKTVTR, the growth estimate was below -0.25.
As for AGIPNPSFFPAKARCGASCQ, the growth estimate is below -0.25.
